# Taken from: PubChem BioAssay AID1259254 (NCATS, 2017)
# Aim: 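Gene knock-downs that lead to re-replication, shown by excess G2 DNA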 (primary screen)
# Cell system: human HCT116 colorectal cancer cells
# Reagents: single siRNA against human genes
# Timing: 3 days
# Detection: 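Nuclei stained with Hoechst and imaged; cell-cycle phase assigned by DNA content; G2 share scaled per plate, non-targeting siRNA 0%, GMNN siRNA 100%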
# Reading the numbers: G2 robust z-score and G2 cells, % of GMNN control: higher = more G2 cells, more excess DNA replication; raw share of cells in G2: higher = larger share of cells with G2 DNA content
# Active means: 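An siRNA counts as active if its G2 robust z-score lies at least 5 MADs above the screen median; here such calls match roughly 38% of GMNN control or more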
# The deposit covers about 59,000 reagents; this is a random part of them. Of all reagents, about 1,550 (2.6%) are marked active. 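G2 share is only a proxy for re-replication; each gene was hit by three separate siRNAs, and active genes were retested.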 Raw values vary from plate to plate and are shown uncorrected. A number with no mark means an inactive call. The numbers tell different reagents against one gene apart. No sequences are given here. The record does not give: the amount of reagent.
target,siRNA no.,G2 robust z-score,"G2 cells, % of GMNN control",raw share of cells in G2 (%)
PDP2,1,-0.00948,2.9,5.74
PDP2,2,0.273,4.89,5.78
PDP2,3,-0.333,0.624,3.68
PIN1,1,-0.167,1.79,5.38
PIN1,2,9.2 (active),67.7,24.7
PIN1,3,-0.518,-0.677,3.29
WHAMM,1,-0.961,-3.79,0.71
WHAMM,2,0.21,4.45,5.87
WHAMM,3,-0.927,-3.56,2.27
UBQLN3,1,0.0738,3.49,5.19
UBQLN3,2,0.463,6.22,6.9
UBQLN3,3,-0.705,-1.99,2.62
CELF3,1,5.44 (active),41.2,22.9
CELF3,2,-0.00359,2.94,4.87
CELF3,3,-0.82,-2.8,3.22
PDCL,1,-0.371,0.356,3.32
PDCL,2,-1.47,-7.4,2.41
PDCL,3,-0.909,-3.43,3.36
MAP3K19,1,0.383,5.66,5.49
MAP3K19,2,1.06,10.4,8.83
MAP3K19,3,-0.662,-1.69,4.58
PAX9,1,-1.18,-5.36,1.37
PAX9,2,2.61,21.3,13.3
PAX9,3,0.341,5.37,6.93
GLI1,1,-0.745,-2.28,2.56
GLI1,2,2.11,17.8,13.2
GLI1,3,0.0833,3.55,4.4
NARS2,1,-0.121,2.12,4.96
NARS2,2,1.22,11.6,9.07
NARS2,3,0.924,9.47,9.37
EOLA1,1,-0.427,-0.0395,2.91
EOLA1,2,-0.0744,2.44,5.12
EOLA1,3,0.0579,3.37,4.06
EOLA1,4,-0.479,-0.4,3.49
EOLA1,5,4.03,31.3,14.5
EOLA1,6,1.98,16.9,8.06
ST6GAL2,1,-0.569,-1.03,5
ST6GAL2,2,-0.879,-3.22,3.03
ST6GAL2,3,0.00246,2.98,5.89
OR2A25,1,-0.591,-1.19,3.38
OR2A25,2,-0.414,0.0523,3.54
OR2A25,3,-0.646,-1.57,4.14
RBM8A,1,-1.42,-7.01,0.806
RBM8A,2,3.17,25.3,15
RBM8A,3,1.53,13.7,10.4
ZNF324B,1,-0.543,-0.851,2.8
ZNF324B,2,6.95 (active),51.8,21.2
ZNF324B,3,-0.793,-2.61,2.61

Reformatted: results already given
CELF3 #2
- G2 robust z-score: -0.00359
- G2 cells, % of GMNN control: 2.94
- raw share of cells in G2 (%): 4.87

CELF3 #3
- G2 robust z-score: -0.82
- G2 cells, % of GMNN control: -2.8
- raw share of cells in G2 (%): 3.22

PDCL #1
- G2 robust z-score: -0.371
- G2 cells, % of GMNN control: 0.356
- raw share of cells in G2 (%): 3.32

PDCL #2
- G2 robust z-score: -1.47
- G2 cells, % of GMNN control: -7.4
- raw share of cells in G2 (%): 2.41

PDCL #3
- G2 robust z-score: -0.909
- G2 cells, % of GMNN control: -3.43
- raw share of cells in G2 (%): 3.36
